This experiment in a line: IkB Signaling. The following applies: ABC-DLBCL IkBa-CBG/CBR dual luciferase ratio (green luciferase fused to IkBa over red control in OCI-Ly3 lymphoma cells), 4 h. The gist of the method:
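Luminescence ratio of IκBα-fused green versus native red beetle luciferase in OCI-Ly3 cells, 4 h post-doxycycline with compound; red signal alone, scaled from basal (0%) to zero light (-100%), flagged nonspecific or cytotoxic effects.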

Setting [1] is: measured here: control luc red channel unless noted.
[2] abbreviates: measured here: IkB-luc green channel.
Setting [3] is: measured here: control luc red channel.

This is one part of the list. These are further read-outs of the screen, such as a control signal, another cell line or another target. No call is given for them. Most of these compounds were active or inconclusive in the main read-out, so they are no random draw. Words in brackets tell the shape of the fitted curve; partial curves, single points and poor fits give uncertain potencies.

For `O=S(=O)(NCCc1csc(-c2cccnc2)n1)c1ccc2c(c1)OCCO2`, the AC50 under setting [1] was 0.01 µM [falling, full curve].

Consider `COCCNC(=O)c1ccccc1-c1ccccc1C(=O)O`, for which the AC50 under setting [1] was 12.6 µM [falling, partial curve].

On to `COCCNC(=O)CCCn1c(=O)c2cc(OC)c(OC)cc2n(CC(=O)Nc2ccc(F)cc2)c1=O`, for which, under setting [1], the AC50 was 10 µM [falling, partial curve].

Turning to `O=C(CSc1nc(=O)[nH]c2c1CCCC2)Nc1ccccc1C(F)(F)F`, the AC50 under setting [1] is 0.794 µM [rising, full curve].

Consider `Cc1ccc(NC(=O)C(NS(=O)(=O)c2ccc3c(c2)CCC(=O)N3)c2ccccc2)cc1C` (centres undefined), for which the AC50 under setting [1] was 3.98 µM [falling, partial curve].

Turning to `c1ccc2c(-c3ccncc3)c[nH]c2c1`, the AC50 runs as follows: under setting [2], 20 µM [falling, partial curve, poor fit]; under setting [3], 15.8 µM [falling, partial curve].

Take `CCOc1ccc(CNC(=O)c2ccc(-c3nc(CS(=O)(=O)c4ccccc4)c(C)o3)cc2)cc1`: the AC50 under setting [1] is 0.0501 µM [falling, full curve, poor fit].

On to `Cc1nn2c(=O)cc(COC(=O)c3cccc(NC(=O)c4cccs4)c3)nc2s1`, for which the AC50 under setting [1] was 2.51 µM [falling, partial curve].

For the compound `Cc1cccc(N(C)S(=O)(=O)c2cc3c(cc2Cl)NC(=O)CO3)c1`, the AC50 under setting [1] was 39.8 µM [falling, single point].

For the compound `O=C(Nc1cccc(C(F)(F)F)c1)C1CCCN1S(=O)(=O)c1cccc2cccnc12` (centres undefined), under setting [1], the AC50 is 12.6 µM [falling, partial curve].

As for `Cc1c(Cl)cccc1NC(=O)CSc1nc(=O)n(Cc2ccccn2)c2c1CCC2`, the AC50 under setting [1] was 39.8 µM [falling, single point].

Take `COc1ccc(OC)c(C(c2nnnn2CCc2ccccc2)N2CCN(c3ccccc3)CC2)c1` (centres undefined): the AC50 is 25.1 µM [rising, single point] under setting [2] and 31.6 µM [rising, single point] under setting [3].

Turning to `Cc1cc(NC(=O)CSc2nc(C3CCCCC3)nc3ccccc23)no1`, the AC50 under setting [1] is 3.16 µM [falling, full curve].

Turning to `CCOC(=O)c1c(NC(=O)c2ccc(S(=O)(=O)N3CCC(C)CC3)cc2)sc2c1CCN(CC)C2`, the AC50 under setting [1] is 39.8 µM [falling, single point].

On to `C=Cc1ccc(Cn2nc(-c3ccc(C)cc3)ccc2=O)cc1`, for which, under setting [1], the AC50 was 25.1 µM [falling, partial curve].

Regarding `CCC(=O)N1CCN(c2ccc(NC(=O)c3cc4ccccc4o3)cc2Cl)CC1`, under setting [1], the AC50 is 3.16 µM [falling, full curve].

In the case of `COc1ccc(OC)c(NC(=O)C2CCN(S(=O)(=O)c3ccc4c(c3)CCCC(=O)N4)CC2)c1`, under setting [1], the AC50 is 0.02 µM [falling, full curve].

As a reminder, the AC50 is the midpoint of the concentration-response curve, whichever way the signal moves.

(Values after PubChem BioAssay AID445 (National Center for Advancing Translational Sciences (NCATS), 2006).)
